Source: PubChem BioAssay AID248 (DTP/NCI, 2004)
The list shows only some results of the screen, not a fair sample: it is rich in T/C values a quarter to a half above the control, in often repeated tests (any T/C) and in doses without a T/C. Other doses and runs of a compound stand elsewhere. T/C: endpoint of the treated group in % of that of the vehicle group. Some entries give survivors of the animals treated and no T/C: the source files T/C as zero there, which appears to mark a toxic dose or a test without result, not a measured value. Some doses without a T/C left all or most animals alive at the check, yet need not have been tolerated: the source hardly ever lists a survival T/C far under the control, and the zero likely stands for such cases as well. Survivors were counted at the toxicity check, usually on the fifth day, unless a day is given; later deaths do not show. Schedule codes are those of the source, read here as Q, the interval in days (D) or hours (H), X, the number of doses. Some schedules carry Z or #; the key to these is not given. Where survival is the endpoint, the PubChem record calls one and a half times the control and up active, and a quarter to a half above the control has no call in these data; cut-offs in other NCI protocols can differ. Some T/C values carry the count of animals alive at the toxicity check (mostly the fifth day); without a count, all were alive then.

Test system: L1210 leukemia ip in BDF1 mice, survival T/C
Assay: NCI In Vivo Anticancer Drug Screen. Data for tumor model L1210 Leukemia (intraperitoneal) in B6D2F1 (BDF1) mice
Settings: T/C endpoint: mean survival time, higher T/C = longer survival
[1] = dose: 100.0 mg/kg/injection, schedule: Q01DX009 (ip), vehicle: saline with Tween-80
[2] = dose: 200.0 mg/kg/injection, schedule: Q04DX002 (ip), vehicle: Klucel (hydroxypropylcellulose) (HPC)
[3] = dose: 400.0 mg/kg/injection, schedule: Q04DX002 (ip), vehicle: Klucel (hydroxypropylcellulose) (HPC)
[4] = dose: 300.0 mg/kg/injection, schedule: Q01DX001 (ip), vehicle: saline
[5] = dose: 400.0 mg/kg/injection, schedule: Q01DX009 (ip), vehicle: saline
[6] = dose: 100.0 mg/kg/injection, schedule: Q01DX001 (ip), vehicle: saline
[7] = dose: 200.0 mg/kg/injection, schedule: Q01DX001 (ip), vehicle: saline
[8] = dose: 400.0 mg/kg/injection, schedule: Q01DX001 (ip), vehicle: saline

## Nc1cnccc1N1CCN(c2cccc3ccccc23)CC1
[1]
  survivor count: 6 of 6
dose: 200.0 mg/kg/injection, schedule: Q01DX009 (ip), vehicle: saline with Tween-80
  survivor count: 1 of 6
dose: 400.0 mg/kg/injection, schedule: Q01DX009 (ip), vehicle: saline with Tween-80
  survivor count: 0 of 6

## CCOC1(OCC)CCCN1C
dose: 100.0 mg/kg/injection, schedule: Q04DX003 (ip), vehicle: saline
  survivor count: 0 of 6
dose: 200.0 mg/kg/injection, schedule: Q04DX003 (ip), vehicle: saline
  survivor count: 0 of 6
dose: 400.0 mg/kg/injection, schedule: Q04DX003 (ip), vehicle: saline
  survivor count: 0 of 6

## O=C(C=C(C(F)(F)F)C(F)(F)F)c1ccc(F)cc1
dose: 50.0 mg/kg/injection, schedule: Q04DX003 (ip), vehicle: other
  survivor count: 2 of 6
dose: 100.0 mg/kg/injection, schedule: Q04DX003 (ip), vehicle: other
  survivor count: 0 of 6

## Cc1cc2cc3cccnn3c2nn1
[2]
  survivor count: 0 of 3
[3]
  survivor count: 0 of 3

## C[N+]1(C)C2CCC(OCc3ccccc3)C1COC2 (configuration not stated)
[4]
  survivor count: 1 of 6

## O=C(O)CC1OCC=C2CN3CCC45C6=CC(=O)C(=O)C([N+](=O)[O-])=C6NC4C1C2CC35 (configuration not stated)
dose: 50.0 mg/kg/injection, schedule: Q01DX001 (ip), vehicle: carboxymethylcellulose (CMC)
  survivor count: 0 of 4
dose: 100.0 mg/kg/injection, schedule: Q01DX001 (ip), vehicle: carboxymethylcellulose (CMC)
  survivor count: 0 of 4
dose: 200.0 mg/kg/injection, schedule: Q01DX001 (ip), vehicle: carboxymethylcellulose (CMC)
  survivor count: 0 of 4

## ONc1ncnc2nc[nH]c12
dose: 100.0 mg/kg/injection, schedule: Q01DX009 (ip), vehicle: saline
  T/C: 125 % of control
dose: 120.0 mg/kg/injection, schedule: Q01DX009 (ip), vehicle: Klucel (hydroxypropylcellulose) (HPC)
  T/C: 125 % of control
dose: 240.0 mg/kg/injection, schedule: Q01DX009 (ip), vehicle: Klucel (hydroxypropylcellulose) (HPC)
  T/C: 139 % of control
[5]
  survivor count: 4 of 6
dose: 800.0 mg/kg/injection, schedule: Q01DX009 (ip), vehicle: saline
  survivor count: 0 of 6

## CC(=O)N(NC(=O)c1ccccn1)C(C)=O
dose: 400.0 mg/kg/injection, schedule: Q01DX001 (ip), vehicle: water
  survivor count: 0 of 6

## CC(=O)OC(C)(C)/C=C/C(=O)[C@](C)(O)[C@H]1[C@H](O)C[C@@]2(C)[C@@H]3CC=C4[C@@H](C[C@H](O)C(=O)C4(C)C)[C@]3(C)C(=O)C[C@]12C
dose: 0.57 mg/kg/injection, schedule: Q01DX Z (ip), vehicle: saline
  survivor count: 1 of 6
dose: 0.72 mg/kg/injection, schedule: Q01DX009 (ip), vehicle: saline
  survivor count: 0 of 6
dose: 0.8 mg/kg/injection, schedule: Q01DX Z (ip), vehicle: carboxymethylcellulose (CMC)
  survivor count: 1 of 4
dose: 0.8 mg/kg/injection, schedule: Q01DX Z (ip), vehicle: saline
  survivor count: 0 of 6
dose: 1.0 mg/kg/injection, schedule: Q01DX001 (ip), vehicle: saline
  survivor count: 0 of 6
dose: 1.13 mg/kg/injection, schedule: Q01DX009 (ip), vehicle: saline
  survivor count: 0 of 6
dose: 1.2 mg/kg/injection, schedule: Q01DX Z (ip), vehicle: saline
  survivor count: 0 of 6
dose: 1.6 mg/kg/injection, schedule: Q01DX Z (ip), vehicle: carboxymethylcellulose (CMC)
  survivor count: 0 of 4
dose: 1.65 mg/kg/injection, schedule: Q01DX009 (ip), vehicle: saline
  survivor count: 0 of 6
dose: 1.8 mg/kg/injection, schedule: Q01DX Z (ip), vehicle: saline
  survivor count: 0 of 6
dose: 3.2 mg/kg/injection, schedule: Q01DX Z (ip), vehicle: carboxymethylcellulose (CMC)
  survivor count: 0 of 4

## O=N[O-].O=N[O-].[Co].[NH-]CCN(CC[NH-])CC[NH-]
[6]
  survivor count: 0 of 4
[7]
  survivor count: 0 of 4
[8]
  survivor count: 0 of 4

## Cc1ccc(NC(=O)Nc2ccc(C)c(NC(=O)Nc3ccc(C)cc3C)c2)c(C)c1
[1]
  survivor count: 6 of 6

## O=C(Nc1ccc(C2=NCCN2)cc1)c1cccc2c(C(=O)Nc3ccc(C4=NCCN4)cc3)cccc12
dose: 15.0 mg/kg/injection, schedule: Q01DX Z (ip), vehicle: carboxymethylcellulose (CMC)
  T/C: 130 % of control
dose: 33.0 mg/kg/injection, schedule: Q01DX Z (ip), vehicle: carboxymethylcellulose (CMC)
  T/C: 127 % of control

## O=c1[nH]c(C(F)(F)F)c(Cc2ccccc2)c(=O)[nH]1
dose: 400.0 mg/kg/injection, schedule: Q01DX001 (ip), vehicle: gum acacia
  survivor count: 3 of 6

## Cc1c(N)nc(C(CC(N)=O)NCC(N)C(N)=O)nc1C(=O)NC(C(=O)NC(C)C(O)C(C)C(=O)NC(C(=O)NCCc1nc(-c2nc(C(=O)NCCC[S+](C)C)cs2)cs1)C(C)O)C(OC1OC(CO)C(O)C(O)C1OC1OC(CO)C(O)C(OC(N)=O)C1O)c1cnc[nH]1 (configuration not stated)
dose: 16.0 mg/kg/injection, schedule: Q01DX009 (ip), vehicle: Klucel (hydroxypropylcellulose) (HPC)
  survivor count: 4 of 6

## CC1CN1C(=O)c1cc(C(=O)N2CC2C)cc(C(=O)N2CC2C)c1 (configuration not stated)
dose: 120.0 mg/kg/injection, schedule: Q01DX001 (ip), vehicle: saline
  survivor count: 3 of 6

## CN(C)N=Nc1ccc(C(=O)NN)cc1
dose: 75.0 mg/kg/injection, schedule: Q01DX Z (ip), vehicle: carboxymethylcellulose (CMC)
  T/C: 134 % of control
dose: 100.0 mg/kg/injection, schedule: Q01DX Z (ip), vehicle: carboxymethylcellulose (CMC)
  T/C: 129 % of control

## O=C(c1ccco1)C(O)c1ccco1 (configuration not stated)
[3]
  survivor count: 1 of 3

## S=P(NCCNP(=S)(N1CC1)N1CC1)(N1CC1)N1CC1
dose: 25.0 mg/kg/injection, schedule: Q01DX009 (ip), vehicle: saline
  T/C: 127 % of control [5 of 6 alive]
dose: 50.0 mg/kg/injection, schedule: Q01DX009 (ip), vehicle: saline
  T/C: 130 % of control
dose: 100.0 mg/kg/injection, schedule: Q01DX009 (ip), vehicle: Klucel (hydroxypropylcellulose) (HPC)
  survivor count: 6 of 6
dose: 200.0 mg/kg/injection, schedule: Q01DX009 (ip), vehicle: saline
  survivor count: 2 of 6
[5]
  survivor count: 0 of 6

## CS(=O)(=O)OCCN(CCOS(C)(=O)=O)c1cccc(N)c1
dose: 2.4 mg/kg/injection, schedule: Q01DX001 (ip), vehicle: saline
  T/C: 131 % of control
dose: 3.6 mg/kg/injection, schedule: Q01DX001 (ip), vehicle: saline
  T/C: 140 % of control
dose: 4.0 mg/kg/injection, schedule: Q01DX001 (ip), vehicle: saline
  T/C: 138 % of control
dose: 5.3 mg/kg/injection, schedule: Q01DX001 (ip), vehicle: saline
  T/C: 137 % of control
dose: 8.0 mg/kg/injection, schedule: Q01DX001 (ip), vehicle: saline
  survivor count: 3 of 6
dose: 10.0 mg/kg/injection, schedule: Q01DX001 (ip), vehicle: saline
  survivor count: 2 of 4
dose: 12.0 mg/kg/injection, schedule: Q01DX001 (ip), vehicle: saline
  survivor count: 1 of 6
dose: 20.0 mg/kg/injection, schedule: Q01DX001 (ip), vehicle: saline
  survivor count: 0 of 4
dose: 40.0 mg/kg/injection, schedule: Q01DX001 (ip), vehicle: saline
  survivor count: 0 of 4
dose: 50.0 mg/kg/injection, schedule: Q01DX001 (ip), vehicle: saline
  survivor count: 0 of 6
dose: 80.0 mg/kg/injection, schedule: Q01DX001 (ip), vehicle: saline
  survivor count: 0 of 4
[6]
  survivor count: 0 of 6
[7]
  survivor count: 0 of 6
[8]
  survivor count: 0 of 6

## COc1ccc(NC(=O)Nc2ccccc2)cc1
[2]
  survivor count: 3 of 3

## N#Cc1ccc[n+](CCc2c[nH]c3ccccc23)c1
dose: 150.0 mg/kg/injection, schedule: Q01DX001 (ip), vehicle: saline
  survivor count: 3 of 6
[4]
  survivor count: 0 of 6

## CC(Br)C(=O)c1cccc2ccccc12 (configuration not stated)
dose: 200.0 mg/kg/injection, schedule: Q04DX003 (ip), vehicle: Klucel (hydroxypropylcellulose) (HPC)
  survivor count: 6 of 6
dose: 400.0 mg/kg/injection, schedule: Q04DX003 (ip), vehicle: Klucel (hydroxypropylcellulose) (HPC)
  survivor count: 6 of 6
